{"source": "the supplement of paper PMC8728848", "binders": {"B1": {"name": "R2-fiber (Pseudomonas aeruginosa), Q9S576 (protein)", "chain": "HHHHHHKVAKDLVVSLAYQVRTEDGVLVDESPVSAPLDYLHGHGSLISGLETALEGHEVGDKFDVAVGANDAYGQYDENLVQRVPKDVFMGVDELQVGMRFLAETDQGPVPVEITAVEDDHVVVDGNHMLAGQNLKFNVEVVAIREATEEELAHGHVHGAHDHHHDHDHDGCCGGHGHDHGHEHGGEGCCGGKGNGGCGCHENLYFQGVTAGMALAATDIPGLDASKLVSGVLAEQRLPVFARGLATAVSNSSDPNTATVPLMLTNHANGPVAGRYFYIQSMFYPDQNGNASQIATSYNATSEMYVRVSYAANPSIREWLPWQRCDIGGSFTKEADGELPGGVNLDSMVTSGWWSQSFTAQAASGANYPIVRAGLLHVYAASSNFIYQTYQAYDGESFYFRCRHSNTWFPWRRMWHGGDFNPSDYLLKSGFYWNALPGKPATFPPSAHNHDVGQLTSGILPLARGGVGSNTAAGARSTIGAGVPATASLGASGWWRDNDTGLIRQWGQVTCPADADASITFPIPFPTLCLGGYANQTSAFHPGTDASTGFRGATTTTAVIRNGYFAQAVLSWEAFGR"}}, "experiment_in_all_cases": "glycan array binding signal (z-score within array); higher = stronger binding", "conditions_in_all_cases": "glycan notation: IUPAC condensed, linker removed", "key": {"[1]": {"target": "Gal(b1-4)GlcNAc(b1-3)Gal(b1-4)GlcNAc(b1-2)Man(a1-3)[Gal(b1-4)GlcNAc(b1-3)Gal(b1-4)GlcNAc(b1-2)Man(a1-6)]Man(b1-4)GlcNAc(b1-4)[Fuc(a1-6)]GlcNAc", "how_it_was_run": "(§1)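 From the Consortium for Functional Glycomics database, 3228 arrays were curated, keeping only those whose protein sequence was available. Binding is given as a within-array Z-score averaged across arrays sharing a protein sequence and across linkers. Negative Z-scores can be read as non-binding.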"}, "[2]": {"target": "Gal(b1-4)GlcNAc(b1-3)Gal(b1-4)GlcNAc(b1-2)[Gal(b1-4)GlcNAc(b1-3)Gal(b1-4)GlcNAc(b1-6)]Man(a1-6)[Gal(b1-4)GlcNAc(b1-3)Gal(b1-4)GlcNAc(b1-2)Man(a1-3)]Man(b1-4)GlcNAc(b1-4)GlcNAc", "how_it_was_run": "as §1"}, "[3]": {"target": "Gal(b1-4)GlcNAc(b1-3)Gal(b1-4)GlcNAc(b1-2)[Gal(b1-4)GlcNAc(b1-3)Gal(b1-4)GlcNAc(b1-6)]Man(a1-6)[Gal(b1-4)GlcNAc(b1-3)Gal(b1-4)GlcNAc(b1-2)Man(a1-3)]Man(b1-4)GlcNAc(b1-4)[Fuc(a1-6)]GlcNAc", "how_it_was_run": "as §1"}, "[4]": {"target": "Gal(b1-4)GlcNAc(b1-3)Gal(b1-4)GlcNAc(b1-3)Gal(b1-4)GlcNAc", "how_it_was_run": "as §1"}, "[5]": {"target": "Gal(b1-4)GlcNAc(b1-3)Gal(b1-4)GlcNAc(b1-3)Gal(b1-4)GlcNAc(b1-2)Man(a1-3)[Gal(b1-4)GlcNAc(b1-3)Gal(b1-4)GlcNAc(b1-3)Gal(b1-4)GlcNAc(b1-2)Man(a1-6)]Man(b1-4)GlcNAc(b1-4)GlcNAc", "how_it_was_run": "as §1"}, "[6]": {"target": "Gal(b1-4)GlcNAc(b1-3)Gal(b1-4)GlcNAc(b1-3)Gal(b1-4)GlcNAc(b1-2)Man(a1-3)[Gal(b1-4)GlcNAc(b1-3)Gal(b1-4)GlcNAc(b1-3)Gal(b1-4)GlcNAc(b1-2)Man(a1-6)]Man(b1-4)GlcNAc(b1-4)[Fuc(a1-6)]GlcNAc", "how_it_was_run": "as §1"}, "[7]": {"target": "Gal(b1-4)GlcNAc(b1-3)Gal(b1-4)GlcNAc(b1-3)Gal(b1-4)GlcNAc(b1-2)[Gal(b1-4)GlcNAc(b1-3)Gal(b1-4)GlcNAc(b1-3)Gal(b1-4)GlcNAc(b1-6)]Man(a1-6)[Gal(b1-4)GlcNAc(b1-3)Gal(b1-4)GlcNAc(b1-3)Gal(b1-4)GlcNAc(b1-2)Man(a1-3)]Man(b1-4)GlcNAc(b1-4)[Fuc(a1-6)]GlcNAc", "how_it_was_run": "as §1"}, "[8]": {"target": "Gal(b1-4)GlcNAc(b1-3)Gal(b1-4)GlcNAc(b1-3)Gal(b1-4)GlcNAc(b1-3)Gal(b1-4)GlcNAc(b1-2)Man(a1-3)[Gal(b1-4)GlcNAc(b1-3)Gal(b1-4)GlcNAc(b1-3)Gal(b1-4)GlcNAc(b1-3)Gal(b1-4)GlcNAc(b1-2)Man(a1-6)]Man(b1-4)GlcNAc(b1-4)GlcNAc", "how_it_was_run": "as §1"}, "[9]": {"target": "Gal(b1-4)GlcNAc(b1-3)Gal(b1-4)GlcNAc(b1-3)Gal(b1-4)GlcNAc(b1-3)Gal(b1-4)GlcNAc(b1-2)Man(a1-3)[Gal(b1-4)GlcNAc(b1-3)Gal(b1-4)GlcNAc(b1-3)Gal(b1-4)GlcNAc(b1-3)Gal(b1-4)GlcNAc(b1-2)Man(a1-6)]Man(b1-4)GlcNAc(b1-4)[Fuc(a1-6)]GlcNAc", "how_it_was_run": "as §1"}, "[10]": {"target": "Gal(b1-4)GlcNAc(b1-3)Gal(b1-4)GlcNAc(b1-3)Gal(b1-4)GlcNAc(b1-3)Gal(b1-4)GlcNAc(b1-2)[Gal(b1-4)GlcNAc(b1-3)Gal(b1-4)GlcNAc(b1-3)Gal(b1-4)GlcNAc(b1-3)Gal(b1-4)GlcNAc(b1-6)]Man(a1-6)[Gal(b1-4)GlcNAc(b1-3)Gal(b1-4)GlcNAc(b1-3)Gal(b1-4)GlcNAc(b1-3)Gal(b1-4)GlcNAc(b1-2)Man(a1-3)]Man(b1-4)GlcNAc(b1-4)[Fuc(a1-6)]GlcNAc", "how_it_was_run": "as §1"}, "[11]": {"target": "Gal(b1-4)GlcNAc(b1-3)Gal(b1-4)GlcNAc(b1-3)Gal(b1-4)GlcNAc(b1-3)Gal(b1-4)GlcNAc(b1-3)Gal(b1-4)GlcNAc(b1-2)Man(a1-3)[Gal(b1-4)GlcNAc(b1-3)Gal(b1-4)GlcNAc(b1-3)Gal(b1-4)GlcNAc(b1-3)Gal(b1-4)GlcNAc(b1-3)Gal(b1-4)GlcNAc(b1-2)Man(a1-6)]Man(b1-4)GlcNAc(b1-4)GlcNAc", "how_it_was_run": "as §1"}, "[12]": {"target": "Gal(b1-4)GlcNAc(b1-3)Gal(b1-4)GlcNAc(b1-3)Gal(b1-4)GlcNAc(b1-3)Gal(b1-4)GlcNAc(b1-3)Gal(b1-4)GlcNAc(b1-2)Man(a1-3)[Gal(b1-4)GlcNAc(b1-3)Gal(b1-4)GlcNAc(b1-3)Gal(b1-4)GlcNAc(b1-3)Gal(b1-4)GlcNAc(b1-3)Gal(b1-4)GlcNAc(b1-2)Man(a1-6)]Man(b1-4)GlcNAc(b1-4)[Fuc(a1-6)]GlcNAc", "how_it_was_run": "as §1"}, "[13]": {"target": "Gal(b1-4)GlcNAc(b1-3)Gal(b1-4)GlcNAc(b1-3)Gal(b1-4)GlcNAc(b1-3)Gal(b1-4)GlcNAc(b1-3)Gal(b1-4)GlcNAc(b1-2)[Gal(b1-4)GlcNAc(b1-3)Gal(b1-4)GlcNAc(b1-3)Gal(b1-4)GlcNAc(b1-3)Gal(b1-4)GlcNAc(b1-3)Gal(b1-4)GlcNAc(b1-6)]Man(a1-6)[Gal(b1-4)GlcNAc(b1-3)Gal(b1-4)GlcNAc(b1-3)Gal(b1-4)GlcNAc(b1-3)Gal(b1-4)GlcNAc(b1-3)Gal(b1-4)GlcNAc(b1-2)Man(a1-3)]Man(b1-4)GlcNAc(b1-4)[Fuc(a1-6)]GlcNAc", "how_it_was_run": "as §1"}, "[14]": {"target": "Gal(b1-4)GlcNAc(b1-3)Gal(b1-4)GlcNAc(b1-3)Gal(b1-4)GlcNAc(b1-3)Gal(b1-4)GlcNAc(b1-3)Gal(b1-4)GlcNAc(b1-3)Gal(b1-4)GlcNAc(b1-2)Man(a1-3)[Gal(b1-4)GlcNAc(b1-3)Gal(b1-4)GlcNAc(b1-3)Gal(b1-4)GlcNAc(b1-3)Gal(b1-4)GlcNAc(b1-3)Gal(b1-4)GlcNAc(b1-3)Gal(b1-4)GlcNAc(b1-2)Man(a1-6)]Man(b1-4)GlcNAc(b1-4)GlcNAc", "how_it_was_run": "as §1"}, "[15]": {"target": "Gal(b1-4)GlcNAc(b1-3)Gal(b1-4)GlcNAc(b1-3)GalNAc", "how_it_was_run": "as §1"}, "[16]": {"target": "Gal(b1-4)GlcNAc(b1-3)Gal(b1-4)GlcNAc(b1-3)[Gal(b1-4)GlcNAc(b1-3)Gal(b1-4)GlcNAc(b1-6)]GalNAc", "how_it_was_run": "as §1"}, "[17]": {"target": "Gal(b1-4)GlcNAc(b1-3)Gal(b1-4)GlcNAc(b1-6)[Gal(b1-3)]GalNAc", "how_it_was_run": "as §1"}, "[18]": {"target": "Gal(b1-4)GlcNAc(b1-3)Gal(b1-4)[Fuc(a1-3)]GlcNAc(b1-3)Gal(b1-4)[Fuc(a1-3)]GlcNAc", "how_it_was_run": "as §1"}, "[19]": {"target": "Gal(b1-4)GlcNAc(b1-3)GalNAc", "how_it_was_run": "as §1"}, "[20]": {"target": "Gal(b1-4)GlcNAc(b1-3)[Fuc(a1-3)GlcNAc(b1-6)]Gal(b1-4)Glc", "how_it_was_run": "as §1"}, "[21]": {"target": "Gal(b1-4)GlcNAc(b1-3)[Gal(b1-4)GlcNAc(b1-6)]Gal(b1-4)GlcNAc", "how_it_was_run": "as §1"}, "[22]": {"target": "Gal(b1-4)GlcNAc(b1-3)[GlcNAc(b1-6)]Gal(b1-4)GlcNAc", "how_it_was_run": "as §1"}, "[23]": {"target": "Gal(b1-4)GlcNAc(b1-6)Gal(b1-4)GlcNAc", "how_it_was_run": "as §1"}, "[24]": {"target": "Gal(b1-4)GlcNAc(b1-6)GalNAc", "how_it_was_run": "as §1"}, "[25]": {"target": "Gal(b1-4)GlcNAc(b1-6)[Gal(b1-3)]GalNAc", "how_it_was_run": "as §1"}, "[26]": {"target": "Gal(b1-4)GlcNAc(b1-6)[Gal(b1-4)GlcNAc(b1-3)]GalNAc", "how_it_was_run": "as §1"}, "Gal(b1-4)GlcNAc6P": {"target": "Gal(b1-4)GlcNAc6P", "how_it_was_run": "as §1"}, "Gal(b1-6)Gal": {"target": "Gal(b1-6)Gal", "how_it_was_run": "as §1"}, "Gal3S(b1-3)GalNAc": {"target": "Gal3S(b1-3)GalNAc", "how_it_was_run": "as §1"}, "Gal3S(b1-3)GlcNAc": {"target": "Gal3S(b1-3)GlcNAc", "how_it_was_run": "as §1"}}, "note": "The list shows a part of the results.", "data": [{"binder": "B1", "values": [{"measurement": "glycan array binding signal (z-score)", "setting": "[1]", "result": 1.95}, {"measurement": "glycan array binding signal (z-score)", "setting": "[2]", "result": 2.06}, {"measurement": "glycan array binding signal (z-score)", "setting": "[3]", "result": 1.1}, {"measurement": "glycan array binding signal (z-score)", "setting": "[4]", "result": 0.018}, {"measurement": "glycan array binding signal (z-score)", "setting": "[5]", "result": 0.715}, {"measurement": "glycan array binding signal (z-score)", "setting": "[6]", "result": 1.1}, {"measurement": "glycan array binding signal (z-score)", "setting": "[7]", "result": 0.207}, {"measurement": "glycan array binding signal (z-score)", "setting": "[8]", "result": 1.13}, {"measurement": "glycan array binding signal (z-score)", "setting": "[9]", "result": 0.233}, {"measurement": "glycan array binding signal (z-score)", "setting": "[10]", "result": 1.16}, {"measurement": "glycan array binding signal (z-score)", "setting": "[11]", "result": -0.158}, {"measurement": "glycan array binding signal (z-score)", "setting": "[12]", "result": 1.1}, {"measurement": "glycan array binding signal (z-score)", "setting": "[13]", "result": 0.259}, {"measurement": "glycan array binding signal (z-score)", "setting": "[14]", "result": 0.964}, {"measurement": "glycan array binding signal (z-score)", "setting": "[15]", "result": -0.045}, {"measurement": "glycan array binding signal (z-score)", "setting": "[16]", "result": -0.271}, {"measurement": "glycan array binding signal (z-score)", "setting": "[17]", "result": -0.437}, {"measurement": "glycan array binding signal (z-score)", "setting": "[18]", "result": 0.383}, {"measurement": "glycan array binding signal (z-score)", "setting": "[19]", "result": -1.43}, {"measurement": "glycan array binding signal (z-score)", "setting": "[20]", "result": 0.125}, {"measurement": "glycan array binding signal (z-score)", "setting": "[21]", "result": 2.03}, {"measurement": "glycan array binding signal (z-score)", "setting": "[22]", "result": -0.649}, {"measurement": "glycan array binding signal (z-score)", "setting": "[23]", "result": -0.238}, {"measurement": "glycan array binding signal (z-score)", "setting": "[24]", "result": 0.918}, {"measurement": "glycan array binding signal (z-score)", "setting": "[25]", "result": -0.31}, {"measurement": "glycan array binding signal (z-score)", "setting": "[26]", "result": 0.867}, {"measurement": "glycan array binding signal (z-score)", "setting": "Gal(b1-4)GlcNAc6P", "result": -0.835}, {"measurement": "glycan array binding signal (z-score)", "setting": "Gal(b1-6)Gal", "result": 0.281}, {"measurement": "glycan array binding signal (z-score)", "setting": "Gal3S(b1-3)GalNAc", "result": 0.022}, {"measurement": "glycan array binding signal (z-score)", "setting": "Gal3S(b1-3)GlcNAc", "result": -0.69}]}]}
